Experimental data from the supplement of paper PMC11006884.
Only a part is listed here, and it is no random draw.

By UniProt entry, the sequences of proteins in these tests, tags left out. Where a name states a change or a piece, a line headed by the entry shows the natural chain unless it says otherwise.
UniProt Q86YR5: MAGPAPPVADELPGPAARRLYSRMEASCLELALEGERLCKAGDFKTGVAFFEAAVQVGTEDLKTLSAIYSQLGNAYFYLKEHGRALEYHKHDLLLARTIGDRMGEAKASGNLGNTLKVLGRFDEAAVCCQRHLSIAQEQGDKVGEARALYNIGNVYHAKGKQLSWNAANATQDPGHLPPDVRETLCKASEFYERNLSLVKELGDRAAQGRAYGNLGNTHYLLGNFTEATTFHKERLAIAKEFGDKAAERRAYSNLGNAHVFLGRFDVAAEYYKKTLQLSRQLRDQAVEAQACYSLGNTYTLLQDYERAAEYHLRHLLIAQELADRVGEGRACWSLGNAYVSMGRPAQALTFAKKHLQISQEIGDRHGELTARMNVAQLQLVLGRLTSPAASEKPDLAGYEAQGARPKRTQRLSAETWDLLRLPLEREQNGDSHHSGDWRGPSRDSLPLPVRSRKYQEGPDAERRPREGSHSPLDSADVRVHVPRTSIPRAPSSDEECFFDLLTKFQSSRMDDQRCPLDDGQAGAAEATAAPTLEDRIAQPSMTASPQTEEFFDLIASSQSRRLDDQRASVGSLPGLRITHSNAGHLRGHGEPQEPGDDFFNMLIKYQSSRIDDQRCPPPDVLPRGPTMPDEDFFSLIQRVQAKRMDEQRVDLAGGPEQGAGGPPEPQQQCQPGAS
UniProt Q7Z2K8: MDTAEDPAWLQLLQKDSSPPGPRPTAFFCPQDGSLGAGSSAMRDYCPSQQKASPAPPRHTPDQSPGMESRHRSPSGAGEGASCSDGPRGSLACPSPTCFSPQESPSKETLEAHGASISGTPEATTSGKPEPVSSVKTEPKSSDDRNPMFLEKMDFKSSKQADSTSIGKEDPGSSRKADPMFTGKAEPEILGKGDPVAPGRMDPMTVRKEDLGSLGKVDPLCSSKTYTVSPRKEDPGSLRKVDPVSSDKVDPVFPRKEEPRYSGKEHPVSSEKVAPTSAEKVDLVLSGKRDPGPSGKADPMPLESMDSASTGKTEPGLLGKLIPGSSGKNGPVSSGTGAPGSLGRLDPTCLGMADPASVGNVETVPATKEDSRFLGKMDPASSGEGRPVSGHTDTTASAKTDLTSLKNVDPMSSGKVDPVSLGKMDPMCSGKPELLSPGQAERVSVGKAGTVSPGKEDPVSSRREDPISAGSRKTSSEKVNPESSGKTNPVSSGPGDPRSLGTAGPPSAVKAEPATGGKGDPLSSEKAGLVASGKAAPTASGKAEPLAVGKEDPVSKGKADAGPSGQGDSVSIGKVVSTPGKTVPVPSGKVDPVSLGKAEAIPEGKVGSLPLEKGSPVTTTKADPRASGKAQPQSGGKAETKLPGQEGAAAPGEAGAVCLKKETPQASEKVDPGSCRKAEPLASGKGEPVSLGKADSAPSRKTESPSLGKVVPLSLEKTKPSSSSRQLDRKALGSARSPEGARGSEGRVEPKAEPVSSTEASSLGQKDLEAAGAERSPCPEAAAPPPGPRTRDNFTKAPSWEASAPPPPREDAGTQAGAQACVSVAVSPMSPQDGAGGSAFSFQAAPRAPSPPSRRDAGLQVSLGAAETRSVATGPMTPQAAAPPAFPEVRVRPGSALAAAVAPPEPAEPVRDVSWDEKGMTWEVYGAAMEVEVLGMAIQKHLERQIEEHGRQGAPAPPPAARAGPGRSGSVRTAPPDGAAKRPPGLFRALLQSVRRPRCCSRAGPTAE
UniProt Q8IY95: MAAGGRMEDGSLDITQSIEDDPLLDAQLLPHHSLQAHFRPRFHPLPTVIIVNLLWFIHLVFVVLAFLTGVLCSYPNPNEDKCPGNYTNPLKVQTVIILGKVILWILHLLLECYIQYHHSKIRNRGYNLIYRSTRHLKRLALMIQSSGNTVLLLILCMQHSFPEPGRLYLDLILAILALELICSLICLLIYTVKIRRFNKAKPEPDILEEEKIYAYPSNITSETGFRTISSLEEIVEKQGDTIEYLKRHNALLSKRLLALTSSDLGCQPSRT
UniProt Q7LBC6: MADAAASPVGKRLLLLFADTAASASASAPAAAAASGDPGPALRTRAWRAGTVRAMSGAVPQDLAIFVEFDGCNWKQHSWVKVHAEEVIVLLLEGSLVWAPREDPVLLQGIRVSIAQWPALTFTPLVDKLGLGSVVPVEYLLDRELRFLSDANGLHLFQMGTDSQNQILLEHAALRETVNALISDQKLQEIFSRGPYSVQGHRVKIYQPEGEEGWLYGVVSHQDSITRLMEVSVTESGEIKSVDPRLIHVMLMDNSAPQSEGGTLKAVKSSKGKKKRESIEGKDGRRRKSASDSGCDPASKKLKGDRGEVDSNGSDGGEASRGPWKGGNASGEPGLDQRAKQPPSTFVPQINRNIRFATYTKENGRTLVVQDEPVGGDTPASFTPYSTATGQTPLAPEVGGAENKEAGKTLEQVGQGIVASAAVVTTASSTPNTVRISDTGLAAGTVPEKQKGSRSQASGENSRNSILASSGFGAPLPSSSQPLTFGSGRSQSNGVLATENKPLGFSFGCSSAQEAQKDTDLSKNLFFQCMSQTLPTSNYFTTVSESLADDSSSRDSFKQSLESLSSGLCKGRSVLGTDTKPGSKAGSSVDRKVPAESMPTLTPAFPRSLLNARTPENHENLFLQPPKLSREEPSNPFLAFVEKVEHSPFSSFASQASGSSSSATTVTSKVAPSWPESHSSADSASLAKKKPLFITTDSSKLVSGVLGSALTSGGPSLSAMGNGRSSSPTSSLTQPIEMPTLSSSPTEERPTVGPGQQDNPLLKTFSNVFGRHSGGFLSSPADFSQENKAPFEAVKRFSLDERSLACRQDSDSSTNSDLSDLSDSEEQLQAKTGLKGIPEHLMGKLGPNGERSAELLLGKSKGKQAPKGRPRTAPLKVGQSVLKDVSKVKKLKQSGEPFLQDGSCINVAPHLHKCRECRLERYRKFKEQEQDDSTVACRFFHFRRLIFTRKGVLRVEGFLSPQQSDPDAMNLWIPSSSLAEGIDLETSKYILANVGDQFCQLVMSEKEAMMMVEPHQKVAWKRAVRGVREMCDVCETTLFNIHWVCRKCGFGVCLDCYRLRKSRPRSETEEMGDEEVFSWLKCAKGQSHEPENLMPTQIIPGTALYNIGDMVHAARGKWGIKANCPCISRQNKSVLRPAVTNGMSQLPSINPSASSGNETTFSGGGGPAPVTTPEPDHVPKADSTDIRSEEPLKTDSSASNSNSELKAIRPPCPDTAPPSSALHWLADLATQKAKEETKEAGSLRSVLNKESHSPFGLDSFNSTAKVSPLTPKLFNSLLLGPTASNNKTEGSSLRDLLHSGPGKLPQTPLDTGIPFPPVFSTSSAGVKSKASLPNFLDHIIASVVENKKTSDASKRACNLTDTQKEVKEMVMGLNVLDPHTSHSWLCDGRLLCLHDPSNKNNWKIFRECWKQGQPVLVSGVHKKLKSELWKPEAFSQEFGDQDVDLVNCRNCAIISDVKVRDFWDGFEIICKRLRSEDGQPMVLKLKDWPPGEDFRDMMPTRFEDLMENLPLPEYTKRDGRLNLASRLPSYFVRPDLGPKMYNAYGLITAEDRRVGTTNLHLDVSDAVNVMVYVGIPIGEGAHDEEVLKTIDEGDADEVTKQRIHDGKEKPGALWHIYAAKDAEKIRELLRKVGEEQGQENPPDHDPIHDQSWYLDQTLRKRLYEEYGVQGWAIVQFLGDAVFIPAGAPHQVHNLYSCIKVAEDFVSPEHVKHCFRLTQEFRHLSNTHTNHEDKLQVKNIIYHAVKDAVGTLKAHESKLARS
UniProt Q86VP6: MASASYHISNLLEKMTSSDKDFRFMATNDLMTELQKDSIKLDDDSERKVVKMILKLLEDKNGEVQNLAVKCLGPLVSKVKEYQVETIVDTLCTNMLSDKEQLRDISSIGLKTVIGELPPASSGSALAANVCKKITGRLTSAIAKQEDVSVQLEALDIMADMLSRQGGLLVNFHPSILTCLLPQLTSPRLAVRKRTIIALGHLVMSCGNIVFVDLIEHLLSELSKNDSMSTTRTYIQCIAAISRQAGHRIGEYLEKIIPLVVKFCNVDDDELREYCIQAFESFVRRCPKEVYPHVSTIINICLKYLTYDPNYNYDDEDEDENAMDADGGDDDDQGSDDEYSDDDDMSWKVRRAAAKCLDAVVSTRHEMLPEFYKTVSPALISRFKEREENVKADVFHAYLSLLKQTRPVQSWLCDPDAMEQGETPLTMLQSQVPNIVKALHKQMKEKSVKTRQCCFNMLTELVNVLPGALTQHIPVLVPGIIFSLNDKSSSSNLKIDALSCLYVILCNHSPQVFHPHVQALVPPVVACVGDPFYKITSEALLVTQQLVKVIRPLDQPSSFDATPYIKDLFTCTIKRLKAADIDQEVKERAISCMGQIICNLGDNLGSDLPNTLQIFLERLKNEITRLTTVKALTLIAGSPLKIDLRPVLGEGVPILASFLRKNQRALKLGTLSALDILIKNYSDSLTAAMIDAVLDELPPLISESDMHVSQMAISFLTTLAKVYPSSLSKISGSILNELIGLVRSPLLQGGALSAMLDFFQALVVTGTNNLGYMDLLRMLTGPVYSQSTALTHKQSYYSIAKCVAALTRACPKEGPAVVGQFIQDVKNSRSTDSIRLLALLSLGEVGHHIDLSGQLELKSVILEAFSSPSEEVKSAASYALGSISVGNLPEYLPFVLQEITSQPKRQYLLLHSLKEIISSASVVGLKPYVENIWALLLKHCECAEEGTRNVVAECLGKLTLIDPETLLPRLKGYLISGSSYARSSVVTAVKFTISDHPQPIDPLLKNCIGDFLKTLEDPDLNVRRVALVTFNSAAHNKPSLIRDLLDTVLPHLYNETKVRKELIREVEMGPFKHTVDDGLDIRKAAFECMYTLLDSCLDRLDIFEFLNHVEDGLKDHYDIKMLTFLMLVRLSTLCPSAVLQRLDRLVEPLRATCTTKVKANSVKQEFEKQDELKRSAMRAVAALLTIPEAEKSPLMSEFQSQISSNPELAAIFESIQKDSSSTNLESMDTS
UniProt Q8IZ21: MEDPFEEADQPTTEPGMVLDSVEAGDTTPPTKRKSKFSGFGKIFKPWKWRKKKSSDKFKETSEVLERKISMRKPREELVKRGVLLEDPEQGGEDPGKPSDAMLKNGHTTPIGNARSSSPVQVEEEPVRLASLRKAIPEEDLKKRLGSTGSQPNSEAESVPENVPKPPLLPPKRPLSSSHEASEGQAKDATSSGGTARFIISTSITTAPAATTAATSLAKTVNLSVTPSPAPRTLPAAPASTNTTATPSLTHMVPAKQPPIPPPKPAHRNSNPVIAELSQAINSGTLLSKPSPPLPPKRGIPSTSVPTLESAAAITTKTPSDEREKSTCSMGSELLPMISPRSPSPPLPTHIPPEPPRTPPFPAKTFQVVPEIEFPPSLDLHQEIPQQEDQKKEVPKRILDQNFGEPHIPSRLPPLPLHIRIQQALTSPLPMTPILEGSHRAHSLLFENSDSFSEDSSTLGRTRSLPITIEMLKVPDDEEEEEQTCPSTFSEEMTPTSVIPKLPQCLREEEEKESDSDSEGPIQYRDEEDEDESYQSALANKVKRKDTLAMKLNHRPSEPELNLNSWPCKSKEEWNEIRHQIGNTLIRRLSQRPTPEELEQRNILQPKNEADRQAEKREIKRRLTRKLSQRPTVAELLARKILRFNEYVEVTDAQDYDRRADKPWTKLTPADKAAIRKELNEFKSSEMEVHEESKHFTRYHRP
UniProt Q86XL3: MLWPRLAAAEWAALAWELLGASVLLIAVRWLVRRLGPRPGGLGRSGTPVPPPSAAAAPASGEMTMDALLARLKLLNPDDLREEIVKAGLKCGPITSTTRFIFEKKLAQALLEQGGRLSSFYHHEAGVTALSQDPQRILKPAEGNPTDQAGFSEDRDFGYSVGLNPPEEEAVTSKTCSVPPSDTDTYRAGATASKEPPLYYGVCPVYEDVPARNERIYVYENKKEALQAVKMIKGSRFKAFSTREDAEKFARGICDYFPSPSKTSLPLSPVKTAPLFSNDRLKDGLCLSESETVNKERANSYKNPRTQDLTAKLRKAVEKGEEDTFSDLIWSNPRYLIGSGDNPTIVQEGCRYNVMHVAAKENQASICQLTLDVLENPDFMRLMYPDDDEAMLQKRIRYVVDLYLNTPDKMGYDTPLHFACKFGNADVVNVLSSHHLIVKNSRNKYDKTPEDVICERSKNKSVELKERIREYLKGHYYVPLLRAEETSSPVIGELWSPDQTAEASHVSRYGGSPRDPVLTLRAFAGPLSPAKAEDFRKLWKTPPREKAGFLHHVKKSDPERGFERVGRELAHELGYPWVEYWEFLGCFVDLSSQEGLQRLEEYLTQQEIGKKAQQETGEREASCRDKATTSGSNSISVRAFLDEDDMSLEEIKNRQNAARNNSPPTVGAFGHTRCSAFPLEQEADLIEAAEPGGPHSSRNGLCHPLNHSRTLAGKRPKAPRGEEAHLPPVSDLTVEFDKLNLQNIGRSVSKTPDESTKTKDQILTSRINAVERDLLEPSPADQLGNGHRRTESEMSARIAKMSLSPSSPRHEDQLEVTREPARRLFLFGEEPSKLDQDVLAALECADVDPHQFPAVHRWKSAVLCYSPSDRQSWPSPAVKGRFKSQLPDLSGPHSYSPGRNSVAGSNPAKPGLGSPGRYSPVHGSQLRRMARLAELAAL

Compound: COC(=O)C#Cc1ccccc1 [methyl 3-phenylpropiolate]
Assay: log2 ratio of iodoacetamide-alkyne labeling of the cysteine site, DMSO over compound (competition); higher = stronger covalent engagement of the cysteine by the compound, active = 1 or more
Conditions: 500 µM; treatment time 1 h; system: HEK293T cell lysate
Procedure, shortened: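 After 1 h at ambient temperature with vehicle or electrophile (500 µM), HEK293T lysate (2 mg/mL) was labelled for 1 h with iodoacetamide alkyne and clicked to sCIP-TMT reagents. Pooled samples were trypsin-digested overnight at 37 °C, streptavidin-enriched, acid-eluted and analysed by Orbitrap Eclipse LC-MS/MS with FAIMS, then quantified in FragPipe over three replicates with duplicate channels. A cysteine's log2 competition ratio is its mean control-channel over mean compound-channel reporter intensity. Cysteines quantified in only one replicate were not included.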

## DHX40 C33 (UniProt Q8IX18)
  log2 ratio of iodoacetamide-alkyne labeling: inactive: 0.451

## ZC3HAV1 C645 (UniProt Q7Z2W4)
  log2 ratio of iodoacetamide-alkyne labeling: inactive: 0.634

## CCDC50 C85 (UniProt Q8IVM0)
  log2 ratio of iodoacetamide-alkyne labeling: inactive: 0.455

## NCAPG2 C537 (UniProt Q86XI2)
  log2 ratio of iodoacetamide-alkyne labeling: inactive: 0.003

## DIS3L2 C146 (UniProt Q8IYB7)
  log2 ratio of iodoacetamide-alkyne labeling: inactive: 0.38

## UniProt Q7Z2Z2_C670
  log2 ratio of iodoacetamide-alkyne labeling: inactive: 0.0864

## UniProt Q86YR5_C616
  log2 ratio of iodoacetamide-alkyne labeling: inactive: -0.225

## UniProt Q7RTV0_C75
  log2 ratio of iodoacetamide-alkyne labeling: inactive: -0.269

## MEPCE C244 (UniProt Q7L2J0)
  log2 ratio of iodoacetamide-alkyne labeling: inactive: 0.206

## PARG C963 (UniProt Q86W56)
  log2 ratio of iodoacetamide-alkyne labeling: inactive: 0.0715

## MGA C2202 (UniProt Q8IWI9)
  log2 ratio of iodoacetamide-alkyne labeling: inactive: 0.578

## SLX4 C1269 (UniProt Q8IY92)
  log2 ratio of iodoacetamide-alkyne labeling: inactive: 0.753

## GPRIN1 C221 (UniProt Q7Z2K8)
  log2 ratio of iodoacetamide-alkyne labeling: inactive: 0.238

## TMEM192 C266 (UniProt Q8IY95)
  log2 ratio of iodoacetamide-alkyne labeling: inactive: 0.418

## UniProt Q7LBC6_C1212
  log2 ratio of iodoacetamide-alkyne labeling: inactive: 0.571

## DCP2 C207 (UniProt Q8IU60)
  log2 ratio of iodoacetamide-alkyne labeling: inactive: -0.0161

## IRF2BP2 C37 (UniProt Q7Z5L9)
  log2 ratio of iodoacetamide-alkyne labeling: inactive: -0.0083

## CEP97 C484 (UniProt Q8IW35)
  log2 ratio of iodoacetamide-alkyne labeling: inactive: 0.117

## DHX30 C461 (UniProt Q7L2E3)
  log2 ratio of iodoacetamide-alkyne labeling: inactive: 0.193

## CAND1 C92 (UniProt Q86VP6)
  log2 ratio of iodoacetamide-alkyne labeling: inactive: -0.0312

## ERMP1 C43 (UniProt Q7Z2K6)
  log2 ratio of iodoacetamide-alkyne labeling: inactive: 0.649

## PBRM1 C450 (UniProt Q86U86)
  log2 ratio of iodoacetamide-alkyne labeling: inactive: 0.0283

## DHX29 C1025 (UniProt Q7Z478)
  log2 ratio of iodoacetamide-alkyne labeling: inactive: 0.0649

## CAND1 C571 (UniProt Q86VP6)
  log2 ratio of iodoacetamide-alkyne labeling: inactive: 0.108

## IRF2BP1 C36 (UniProt Q8IU81)
  log2 ratio of iodoacetamide-alkyne labeling: inactive: 0.0787

## DCP2 C158 (UniProt Q8IU60)
  log2 ratio of iodoacetamide-alkyne labeling: inactive: 0.0851

## HEATR3 C173 (UniProt Q7Z4Q2)
  log2 ratio of iodoacetamide-alkyne labeling: inactive: 0.137

## CAND1 C1153 (UniProt Q86VP6)
  log2 ratio of iodoacetamide-alkyne labeling: inactive: 0.443

## MAEA C61 (UniProt Q7L5Y9)
  log2 ratio of iodoacetamide-alkyne labeling: inactive: 0.354

## PDSS2 C71 (UniProt Q86YH6)
  log2 ratio of iodoacetamide-alkyne labeling: inactive: 0.666

## UniProt Q7LBC6_C1470
  log2 ratio of iodoacetamide-alkyne labeling: inactive: 0.686

## UniProt Q86YR5_C515
  log2 ratio of iodoacetamide-alkyne labeling: active: 1.7

## MAP7D3 C315 (UniProt Q8IWC1)
  log2 ratio of iodoacetamide-alkyne labeling: inactive: -0.125

## DHX30 C484 (UniProt Q7L2E3)
  log2 ratio of iodoacetamide-alkyne labeling: inactive: 0.24

## PHF6 C242 (UniProt Q8IWS0)
  log2 ratio of iodoacetamide-alkyne labeling: inactive: 0.181

## DHX37 C766 (UniProt Q8IY37)
  log2 ratio of iodoacetamide-alkyne labeling: inactive: 0.652

## SH3RF1 C658 (UniProt Q7Z6J0)
  log2 ratio of iodoacetamide-alkyne labeling: inactive: 0.0971

## CAND1 C356 (UniProt Q86VP6)
  log2 ratio of iodoacetamide-alkyne labeling: inactive: 0.216

## SLFN11 C6 (UniProt Q7Z7L1)
  log2 ratio of iodoacetamide-alkyne labeling: inactive: 0.329

## LARP4 C599 (UniProt Q71RC2)
  log2 ratio of iodoacetamide-alkyne labeling: inactive: 0.484

## USP48 C986 (UniProt Q86UV5)
  log2 ratio of iodoacetamide-alkyne labeling: inactive: 0.0665

## UniProt Q8IYL2_C666
  log2 ratio of iodoacetamide-alkyne labeling: inactive: 0.579

## PARG C515 (UniProt Q86W56)
  log2 ratio of iodoacetamide-alkyne labeling: active: 1.16

## PHACTR4 C328 (UniProt Q8IZ21)
  log2 ratio of iodoacetamide-alkyne labeling: inactive: 0.262

## IRF2BP2 C65 (UniProt Q7Z5L9)
  log2 ratio of iodoacetamide-alkyne labeling: inactive: 0.21

## ZC3HC1 C500 (UniProt Q86WB0)
  log2 ratio of iodoacetamide-alkyne labeling: inactive: 0.388

## SESTD1 C618 (UniProt Q86VW0)
  log2 ratio of iodoacetamide-alkyne labeling: inactive: 0.161

## UniProt Q8IX01_C447
  log2 ratio of iodoacetamide-alkyne labeling: inactive: 0.259

## MAP7D3 C505 (UniProt Q8IWC1)
  log2 ratio of iodoacetamide-alkyne labeling: inactive: 0.196

## FTSJ3 C52 (UniProt Q8IY81)
  log2 ratio of iodoacetamide-alkyne labeling: inactive: 0.086

## SLFN11 C842 (UniProt Q7Z7L1)
  log2 ratio of iodoacetamide-alkyne labeling: inactive: 0.737

## SND1 C152 (UniProt Q7KZF4)
  log2 ratio of iodoacetamide-alkyne labeling: inactive: 0.4

## UniProt Q7L2H7_C134
  log2 ratio of iodoacetamide-alkyne labeling: inactive: -0.134

## PXK C570 (UniProt Q7Z7A4)
  log2 ratio of iodoacetamide-alkyne labeling: inactive: 0.571

## HUWE1 C689 (UniProt Q7Z6Z7)
  log2 ratio of iodoacetamide-alkyne labeling: inactive: 0.0285

## CAND1 C413 (UniProt Q86VP6)
  log2 ratio of iodoacetamide-alkyne labeling: inactive: 0.304

## POGZ C547 (UniProt Q7Z3K3)
  log2 ratio of iodoacetamide-alkyne labeling: inactive: -0.0245

## ANKLE2 C254 (UniProt Q86XL3)
  log2 ratio of iodoacetamide-alkyne labeling: inactive: 0.948

## UniProt Q8IX01_C656
  log2 ratio of iodoacetamide-alkyne labeling: active: 2.27

## UniProt Q86Y56_C420
  log2 ratio of iodoacetamide-alkyne labeling: inactive: 0.492

## IRF2BP1 C239 (UniProt Q8IU81)
  log2 ratio of iodoacetamide-alkyne labeling: inactive: 0.125

## PHF6 C128 (UniProt Q8IWS0)
  log2 ratio of iodoacetamide-alkyne labeling: inactive: -0.0348

## WDFY1 C401 (UniProt Q8IWB7)
  log2 ratio of iodoacetamide-alkyne labeling: inactive: 0.225

## DCXR C138 (UniProt Q7Z4W1)
  log2 ratio of iodoacetamide-alkyne labeling: inactive: 0.126

## NUFIP2 C234 (UniProt Q7Z417)
  log2 ratio of iodoacetamide-alkyne labeling: inactive: 0.151

## UniProt Q7Z2Z2_C604
  log2 ratio of iodoacetamide-alkyne labeling: inactive: 0.247

## UBR1 C1603 (UniProt Q8IWV7)
  log2 ratio of iodoacetamide-alkyne labeling: inactive: 0.433

## GATAD2A C417 (UniProt Q86YP4)
  log2 ratio of iodoacetamide-alkyne labeling: inactive: 0.297

## ATG9A C764 (UniProt Q7Z3C6)
  log2 ratio of iodoacetamide-alkyne labeling: inactive: 0.796

## UniProt Q7LBC6_C1451
  log2 ratio of iodoacetamide-alkyne labeling: inactive: 0.513

## ZC3HC1 C5 (UniProt Q86WB0)
  log2 ratio of iodoacetamide-alkyne labeling: inactive: 0.311

## ASRGL1 C115 (UniProt Q7L266)
  log2 ratio of iodoacetamide-alkyne labeling: inactive: 0.532

## N4BP2 C1145 (UniProt Q86UW6)
  log2 ratio of iodoacetamide-alkyne labeling: inactive: 0.418

## SUPT6H C527 (UniProt Q7KZ85)
  log2 ratio of iodoacetamide-alkyne labeling: inactive: 0.307
